Values from PubChem BioAssay AID1259405 (NCATS, 2018).
Test: 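Knock-downs that lift recombinant protein yield in hamster ovary cells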 (primary screen). System: Chinese hamster CHO-K1 ovary cells with stable secreted eGFP expression. Knock-down reagent: single siRNA against mouse genes, 0.8 pmol siRNA per well (2 µl of 400 nM stock). Time to read-out: 3 days. Measured: 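Per-well intracellular GFP measured by laser scanning cytometry, plus viability from ATP luminescence, each relative to plate median of non-targeting control wells, in %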. Direction: GFP, % of control: higher = more GFP per well, higher productivity. Call rule: 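Called active when intracellular GFP, relative to negative control, is at or above 120%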.
Here is an unselected part of about 50,000 reagents. About 4,000 of them (8%) were called active. 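Mouse siRNA library applied to hamster cells; one well for each siRNA.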 Unmarked entries are inactive. Reagents against one gene are numbered here. Further read-outs or replicates are left out here.

GFP, % of control, by gene and reagent
Ints5: #1 80; #2 97; #3 55.3
Myl3: #1 52.4; #2 56
Slc4a8: #1 76.1; #2 75.8; #3 109
Camkk1: #1 87.1; #2 48.6; #3 72.3
Dlx5: #1 66; #2 107; #3 68.6
Radil: #1 85.5; #2 70.3; #3 104
Gins4: #1 22.8; #2 36.3; #3 64.8
Ube2d3: #1 98.6; #2 107; #3 106
Zfp185: #1 126 (active); #2 96.8; #3 110
Slfnl1: #1 83.7; #2 68; #3 105
Exoc2: #1 40.9; #2 50.9; #3 50
Plk3: #1 33.8
G3bp1: #1 80.9; #2 44.6; #3 76.5

Hits (from the list above):
GFP, % of control, by gene and reagent
Zfp185: #1 126 (active)

The listing continues:
GFP, % of control, by gene and reagent
Cnr2: #1 69.9; #2 80; #3 72.6
H3c7: #1 43.3; #2 73.4; #3 39.2
Magix: #1 51.2; #2 75.6; #3 56.6
Lima1: #1 151 (active); #2 110
Sval3: #1 87.7; #2 102; #3 149 (active)
Catsper1: #1 91.2; #2 61
Cyp2c67: #1 62.7; #2 46; #3 72.5
Thap3: #1 75.9; #2 116; #3 92.2
